Measured values published in PubChem BioAssay AID504834 (National Center for Advancing Translational Sciences (NCATS), 2011).
The campaign covered roughly 320,000 compounds. About 22,000 (6.9%) were called active. The inconclusive results got no clear call from the source; some entries with a clear call stand among them for comparison. Calls follow the shape of the dose curve; as a rule, active = well fitted inhibition curve with a large enough effect; inconclusive = small, poorly fitted or top-dose-only effect, or another doubt; inactive = no such curve, though single readings can be large or run the other way. Where the call is inconclusive, the potency comes from a doubtful curve fit.

assay: Primary qHTS for delayed death inhibitors of the malarial parasite plastid, 96 hour incubation; details: P. falciparum luciferase reporter growth; series mostly up to 28.7 µM
Method in brief: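 Cell-based qHTS: luciferase-tagged P. falciparum in erythrocytes (2% hematocrit, 0.05% parasitemia final) incubated with compounds for 96 hours, 37 C, 5% CO2; luciferase detection reagent then added and luminescence measured.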
Potency is read from the fitted curve at half-maximal effect.

| Structure (SMILES) | Potency |
| --- | --- |
| O=C(Nc1ccnc(-c2cccnc2)n1)c1cccc(Cl)c1Cl | inconclusive: 1.04 µM [inhibitor, full curve, poor fit] |
| COc1cccc(/C=N/NC(=O)c2cccc([N+](=O)[O-])c2)c1OS(=O)(=O)c1ccccc1 | inconclusive: 18.5 µM [inhibitor, single point] |
| COc1ccc(C2C=C(c3ccccc3)Nc3nnnn32)cc1 (stereo unspecified) | inactive |
| CCCc1nc2ccccc2c(C(=O)OCC(=O)NCc2ccc3c(c2)OCO3)c1CC | active: 8.28 µM |
| COc1ccc(-n2c(COc3cccc4cccnc34)nnc2SCC(=O)O)cc1 | inactive |
| COc1ccccc1NC(=S)N(Cc1ccco1)Cc1cc2cccc(C)c2[nH]c1=O | inactive |
| CC(SCc1ccccc1)C(=O)Nc1ccccc1F (stereo unspecified) | active: 0.928 µM |
| Cc1ccc(N(C(=O)c2csnn2)C(C(=O)NC2CCCCC2)c2ccccn2)cc1C (stereo unspecified) | inactive |
| COc1ccc(N(CC(=O)Nc2ccc(C)c(F)c2)S(=O)(=O)c2c(C)noc2C)cc1 | inconclusive: 16.5 µM [inhibitor, single point] |
| O=C1C(Cc2cccc([N+](=O)[O-])c2)SC(=Nc2ccccc2)N1c1ccccc1 (stereo unspecified) | active: 7.38 µM |
| CN(C)CCN(Cc1ccccc1)S(=O)(=O)c1csc(C(N)=O)c1 | inconclusive: 11.7 µM [inhibitor, single point] |
| O=C(c1ccccn1)c1conc1C(=O)c1ccc(Br)cc1 | inactive |
| CCCCOC(=O)C1=C(C)Nc2nnnn2C1c1ccc(OC)c(OC)c1OC (stereo unspecified) | inconclusive: 8.28 µM [inhibitor, single point] |
| COc1ccc(NS(=O)(=O)c2cc(NC(=O)[C@@H](NC(=O)c3ccccc3)C(C)C)ccc2C)cc1 | active: 9.28 µM |
| COc1ccc(CN(C)C(=O)c2ccc3c(=O)n4c(nc3c2)CCC4)c(OC)c1 | inconclusive: 10.4 µM [inhibitor, partial curve] |
| Cc1noc(NS(=O)(=O)c2ccc(NC(=O)c3nn(-c4ccc(F)cc4)ccc3=O)cc2)c1C | inconclusive: 18.5 µM [inhibitor, single point] |
| Cc1ccccc1S(=O)(=O)NC1OC(=O)C(Oc2ccccc2)=C1Br (stereo unspecified) | inactive |
| CN1CCN(C(=S)NC(=O)c2ccc(-c3ccccc3)cc2)CC1 | inactive |
| Cc1[nH]c(C)c(S(=O)(=O)NCCc2ccc(S(N)(=O)=O)cc2)c1C(=O)N1CCCC1 | inconclusive: 11.7 µM [inhibitor, single point] |
| COc1ccc(-c2c(C(F)(F)F)nn(C)c2NC(C)=O)cc1 | inconclusive: 18.5 µM [inhibitor, single point] |
| COc1cc(/C=C2\SC(=Nc3ccccc3)N(Cc3ccco3)C2=O)ccc1OC(C)C(=O)O (stereo unspecified) | inconclusive: 13.1 µM [inhibitor, single point] |
| CC(C)Cn1c(SCC(=O)N2CCOCC2)nc2ccccc2c1=O | inconclusive: 9.28 µM [inhibitor, partial curve, poor fit] |
| C=CCc1c(C)nc(-c2ccccc2)nc1N/N=C(\C)c1ccc(N)cc1 | inactive |
| COc1ccc(OC)c(NC(=O)c2cc3oc4ccccc4c3cc2O)c1 | inconclusive: 0.185 µM [inhibitor, full curve, poor fit] |

| Structure (SMILES) | Potency |
| --- | --- |
| C=CCNC(=S)NNC(=O)C(CCC(C)C)CC(C)(C)O (stereo unspecified) | inconclusive: 18.5 µM [inhibitor, single point] |
| CCOC(=O)c1cnc(-n2nc(C)cc2C)nc1Nc1ccc(C)cc1 | inconclusive: 0.0026 µM [inhibitor, full curve, poor fit] |
| N#Cc1ccccc1CSc1nnc(Cc2ccccc2)o1 | inconclusive: 0.0131 µM [inhibitor, full curve, poor fit] |
| CCC(c1nnnn1Cc1ccco1)N1CCN(c2cc(Cl)ccc2C)CC1 (stereo unspecified) | active: 1.47 µM |
| CCOC(=O)c1c(NC(=S)N2CCCCC2)sc2c1CCN(C(=O)OCC)C2 | inconclusive: 18.5 µM [inhibitor, single point] |
| Cc1cccc2nc(-c3ccco3)c(Nc3ccc4c(c3)OCCO4)n12 | inconclusive: 1.65 µM [inhibitor, full curve, poor fit] |
| CN(CC(=O)Nc1ccc(OC(F)(F)F)cc1)C(=O)C1CCC1 | inconclusive: 18.5 µM [inhibitor, single point] |
| O=C(CSc1nc2c(c(=O)n1-c1ccc(Br)cc1)SCC2)NCC1CCCO1 (stereo unspecified) | inconclusive: 18.5 µM [inhibitor, single point] |
| COc1ccccc1S(=O)(=O)c1c(C)cc(C)[nH]c1=O | inconclusive: 0.0033 µM [inhibitor, partial curve, poor fit] |
| COc1ccc(-c2nn(Cc3ccccc3)cc2C(=O)N2CCN(c3ncccn3)CC2)cc1OC | inconclusive: 9.28 µM [inhibitor, single point] |
| O=C(c1ccco1)N1CCN(c2c([N+](=O)[O-])nn(-c3ccc(Cl)cc3)[n+]2[O-])CC1 | inactive |
| Nc1nnc(CSCc2ccc(Cl)cc2Cl)s1 | inactive |
| OC(CCN1CCOCC1)c1ccccc1 (stereo unspecified) | inactive |
| Cc1ccc(S(=O)(=O)Oc2ccc(/C=C(/NC(=O)c3ccccc3)C(=O)NCC(=O)O)cc2)cc1 | inconclusive: 14.7 µM [inhibitor, single point] |
| N/C(=N\OC(=O)Cc1ccccc1)c1ccncc1 | inactive |
| COc1ccccc1N=c1oc2cc(O)ccc2cc1C(=O)NCC1CCCO1 (stereo unspecified) | inconclusive: 4.15 µM [inhibitor, single point] |
| CCN(CC)c1ccc(NC(=S)NC(=O)c2cccs2)cc1 | inconclusive: 8.28 µM [inhibitor, single point] |
| Cc1nc2ccccc2c(=O)n1NC(=O)Cc1ccc([N+](=O)[O-])cc1 | inactive |
| Cc1cccc(N2CCN(C(=O)Cc3ccc(-n4c(=O)[nH]c5ccsc5c4=O)cc3)CC2C)c1 (stereo unspecified) | inconclusive: 9.28 µM [inhibitor, single point] |
| COc1cccc(COC(=O)c2ccc3c(c2)NC(=O)C(C)S3)c1OC (stereo unspecified) | inconclusive: 10.4 µM [inhibitor, single point] |
| CCOc1ccccc1OCC(=O)O | inconclusive: 13.1 µM [inhibitor, single point] |
| Cc1cc(Cl)c2oc(C(=O)N(C)CCCCN3CCOCC3)c(C)c2c1 | inconclusive: 10.4 µM [inhibitor, single point] |
| COc1ccc(OC)c(NC(=O)CN2C(=O)NC3(CCCc4ccccc43)C2=O)c1 (stereo unspecified) | inconclusive: 10.4 µM [inhibitor, partial curve, poor fit] |
| CCCn1c(N)c(C(=O)CSc2nnc(C3CC3)n2-c2ccccc2)c(=O)[nH]c1=O | active: 10.4 µM |

| Structure (SMILES) | Potency |
| --- | --- |
| Cc1cc(C)nc(OC(C(=O)O)C(OCCc2ccccc2)(c2ccc(F)cc2)c2ccc(F)cc2)n1 (stereo unspecified) | inactive |
| CCCc1n[nH]c(=S)n1Cc1ccco1 | inconclusive: 2.33 µM [inhibitor, full curve, poor fit] |
| CCN(CC)c1ccc(S(=O)(=O)N2CCOCC2)cc1NC(=O)CNCc1ccccc1 | inconclusive: 1.04 µM [inhibitor, partial curve, poor fit] |
| O=C(Cn1nc(Cc2cccnc2)c2ccccc2c1=O)NCC1CCCO1 (stereo unspecified) | active: 9.28 µM |
| O=C1OC(Cc2ccccn2)C(=O)C1=C1SCCS1 (stereo unspecified) | inactive |
| O=C(CSc1ccc(Cl)cc1)NC1CCCc2ccccc21 (stereo unspecified) | inactive |
| COc1ccc(CN2CCN(C(=O)CN3C(=O)C4C5C=CC(C5)C4C3=O)CC2)c(OC)c1OC (stereo unspecified) | inconclusive: 11.7 µM [inhibitor, single point] |
| O=C(CCC1CCCN(C(=O)c2ccc(F)c(F)c2)C1)N1CCN(c2ccccn2)CC1 (stereo unspecified) | inconclusive: 14.7 µM [inhibitor, single point] |
| CN(C)CCCN1c2ccccc2C(C)(C)c2ccccc21 | active: 16.9 µM |
| C/C(=N\NC(=O)C1COc2ccccc2O1)c1cc2ccccc2o1 (stereo unspecified) | inconclusive: 13.1 µM [inhibitor, partial curve] |
| COc1ccc(C(=O)Nc2ccc(Cl)cc2F)cc1S(=O)(=O)N1CCCC1 | active: 9.28 µM |
| COc1ccc(NC(=O)COC(=O)C2CC2)cc1S(=O)(=O)N1CCCCC1 | inconclusive: 6.57 µM [inhibitor, partial curve] |
| Cc1ccc(CN2CCN(CC(=O)N3CCc4ccccc4C3)C2=O)cc1 | active: 16.5 µM |
| COc1ccccc1CNC(=O)COC(=O)c1c[nH]c2ccccc12 | inactive |
| COc1ccc(C2C(C(=O)c3cccs3)=C(O)C(=O)N2c2cccc(C)n2)cc1OC (stereo unspecified) | inactive |
| Cc1cc(=O)n2[nH]cc(-c3ccccc3)c2n1 | active: 9.28 µM |
| O=P(O)(O)CCP(=O)(c1ccccc1)c1ccccc1 | active: 1.65 µM |
| CCc1nnc(NC(=O)CCCSc2nc3ccccc3[nH]2)s1 | inconclusive: 9.28 µM [inhibitor, partial curve, poor fit] |
| S=C(Nc1ccc(Br)cc1)N1CCn2cccc2C1c1cccnc1 (stereo unspecified) | inconclusive: 18.5 µM [inhibitor, single point] |
| Cc1ccc(NC(=S)N/N=C/c2c(C)[nH]c3ccccc23)cc1 | inconclusive: 9.28 µM [inhibitor, partial curve, poor fit] |
| COc1ccc(-c2cc(C(=O)NCC3CCCO3)c3ccccc3n2)c(OC)c1 (stereo unspecified) | inconclusive: 1.47 µM [inhibitor, partial curve] |
| CCS(=O)(=O)NCC(c1cccnc1)N1CCN(c2ccccc2F)CC1 (stereo unspecified) | inconclusive: 8.28 µM [inhibitor, partial curve] |
| CC(C)COc1cccc(C(=O)Nc2ccc(N3CCOCC3)cc2N2CCOCC2)c1 | inconclusive: 11.7 µM [inhibitor, partial curve] |

Two compounds drawn at random from those above:

| Structure (SMILES) | Potency |
| --- | --- |
| N/C(=N\OC(=O)Cc1ccccc1)c1ccncc1 | inactive |
| CN(C)CCN(Cc1ccccc1)S(=O)(=O)c1csc(C(N)=O)c1 | inconclusive: 11.7 µM [inhibitor, single point] |

Look-ups from the list.
Entry for `COc1ccccc1CNC(=O)COC(=O)c1c[nH]c2ccccc12` under Potency: inactive
Entry for `O=C1OC(Cc2ccccn2)C(=O)C1=C1SCCS1` (stereo unspecified) under Potency: inactive

A portion from the list above, as a working copy:

| Structure (SMILES) | Potency |
| --- | --- |
| COc1ccc(N(CC(=O)Nc2ccc(C)c(F)c2)S(=O)(=O)c2c(C)noc2C)cc1 | inconclusive: 16.5 µM [inhibitor, single point] |
| O=C1C(Cc2cccc([N+](=O)[O-])c2)SC(=Nc2ccccc2)N1c1ccccc1 (stereo unspecified) | active: 7.38 µM |
